Results: patent US11091444B2, “Hydantoins that modulate BACE-mediated app processing” (BUCK INSTITUTE FOR RESEARCH ON AGING, priority 2013, dated 2021)
At least one compound was matched to its structure with a doubt left.

Tested on: Aβ42
Assay: Aβ lowering in NTg mice
Type: in vivo
Settings: 5 mpk
Experimental: Compound 2 and other hydantoins were produced (see, e.g., compounds 1-5 pharmacokinetic evaluation of these hydantoins was determined in brain uptake assays using NTg mice (see, e.g., Table 1). It was also determined that Compound 1 lowered Aβ42 in the same animals at 5 mpk, while compound 3 lowered Aβ at 1 mpk.

CN1C(=O)C(c2ccccc2)(c2cc(F)cc(F)c2)N=C1N (stereo not shown) [FAH-1]
Aβ42 lowering in vivo: lowered Aβ42
